In PMC8655878:
Results are given in words; binding and its absence hold for the method and conditions named. Binding seen in cells or lysates may run through a third protein. Some entries that bind do so weakly or less than the wild type. Tags and fused reporters may be left off the sequences shown.

Sequences of proteins named here, by UniProt entry; tags and fusion partners are left off.
UniProt P49023: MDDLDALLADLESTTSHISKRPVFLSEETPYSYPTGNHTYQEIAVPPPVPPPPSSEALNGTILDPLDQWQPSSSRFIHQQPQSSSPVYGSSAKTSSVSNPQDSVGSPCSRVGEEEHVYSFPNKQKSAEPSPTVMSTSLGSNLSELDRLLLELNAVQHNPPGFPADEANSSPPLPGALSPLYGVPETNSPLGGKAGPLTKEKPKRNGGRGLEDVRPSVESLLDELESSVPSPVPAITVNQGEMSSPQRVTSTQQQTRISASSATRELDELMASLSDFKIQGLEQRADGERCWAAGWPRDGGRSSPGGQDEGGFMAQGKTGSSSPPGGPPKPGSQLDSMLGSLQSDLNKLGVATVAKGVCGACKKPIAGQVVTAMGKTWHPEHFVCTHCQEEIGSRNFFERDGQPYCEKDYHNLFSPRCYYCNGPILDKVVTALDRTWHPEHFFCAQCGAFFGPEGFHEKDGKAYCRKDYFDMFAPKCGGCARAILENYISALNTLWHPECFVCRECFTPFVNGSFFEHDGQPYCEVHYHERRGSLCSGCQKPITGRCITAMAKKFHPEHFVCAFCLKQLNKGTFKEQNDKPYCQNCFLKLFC

Experiments:
[1] = target: T1, GFP tagged α9 integrin (Integrin alpha9 EGFP-N3) (human) (UniProt Q13797); assay: co-IP; GFP-TRAP beads on whole cell lysates of confluent NEB-1 keratinocyte monolayers transiently expressing GFP, α4-GFP or α9-GFP for 48 h, treated with DMSO or BOP for 1 h; Western blot for paxillin, Importin 7 and GFP
T1 sequence: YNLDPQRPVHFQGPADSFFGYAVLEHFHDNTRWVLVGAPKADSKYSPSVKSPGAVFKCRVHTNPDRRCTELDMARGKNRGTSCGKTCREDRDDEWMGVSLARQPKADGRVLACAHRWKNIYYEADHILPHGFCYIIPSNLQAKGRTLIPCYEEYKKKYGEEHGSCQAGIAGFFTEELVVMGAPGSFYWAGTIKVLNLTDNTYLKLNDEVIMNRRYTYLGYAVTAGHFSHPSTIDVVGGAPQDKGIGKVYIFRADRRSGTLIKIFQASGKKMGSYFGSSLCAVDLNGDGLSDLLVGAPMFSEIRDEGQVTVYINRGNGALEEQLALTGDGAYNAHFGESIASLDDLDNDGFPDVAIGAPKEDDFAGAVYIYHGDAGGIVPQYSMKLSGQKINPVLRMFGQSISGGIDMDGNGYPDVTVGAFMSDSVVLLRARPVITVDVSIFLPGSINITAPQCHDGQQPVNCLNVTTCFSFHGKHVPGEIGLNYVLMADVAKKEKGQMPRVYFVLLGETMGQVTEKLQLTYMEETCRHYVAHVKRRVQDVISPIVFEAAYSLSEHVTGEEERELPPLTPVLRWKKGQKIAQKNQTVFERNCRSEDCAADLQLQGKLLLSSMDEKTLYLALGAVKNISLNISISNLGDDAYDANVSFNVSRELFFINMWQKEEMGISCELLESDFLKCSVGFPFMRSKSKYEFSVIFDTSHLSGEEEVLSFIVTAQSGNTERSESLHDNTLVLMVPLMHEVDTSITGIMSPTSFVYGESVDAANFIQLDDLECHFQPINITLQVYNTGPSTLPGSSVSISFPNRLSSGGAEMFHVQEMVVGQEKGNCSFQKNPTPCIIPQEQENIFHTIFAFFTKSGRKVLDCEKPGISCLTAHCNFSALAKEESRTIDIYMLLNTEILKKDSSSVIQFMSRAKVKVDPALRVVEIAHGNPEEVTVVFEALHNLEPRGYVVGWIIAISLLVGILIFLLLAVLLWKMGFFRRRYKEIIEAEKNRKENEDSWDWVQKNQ

[2] = target: T2, GFP tagged α4 integrin (Integrin alpha4 EGFP-N3) (UniProt P13612); assay: as above
T2 sequence: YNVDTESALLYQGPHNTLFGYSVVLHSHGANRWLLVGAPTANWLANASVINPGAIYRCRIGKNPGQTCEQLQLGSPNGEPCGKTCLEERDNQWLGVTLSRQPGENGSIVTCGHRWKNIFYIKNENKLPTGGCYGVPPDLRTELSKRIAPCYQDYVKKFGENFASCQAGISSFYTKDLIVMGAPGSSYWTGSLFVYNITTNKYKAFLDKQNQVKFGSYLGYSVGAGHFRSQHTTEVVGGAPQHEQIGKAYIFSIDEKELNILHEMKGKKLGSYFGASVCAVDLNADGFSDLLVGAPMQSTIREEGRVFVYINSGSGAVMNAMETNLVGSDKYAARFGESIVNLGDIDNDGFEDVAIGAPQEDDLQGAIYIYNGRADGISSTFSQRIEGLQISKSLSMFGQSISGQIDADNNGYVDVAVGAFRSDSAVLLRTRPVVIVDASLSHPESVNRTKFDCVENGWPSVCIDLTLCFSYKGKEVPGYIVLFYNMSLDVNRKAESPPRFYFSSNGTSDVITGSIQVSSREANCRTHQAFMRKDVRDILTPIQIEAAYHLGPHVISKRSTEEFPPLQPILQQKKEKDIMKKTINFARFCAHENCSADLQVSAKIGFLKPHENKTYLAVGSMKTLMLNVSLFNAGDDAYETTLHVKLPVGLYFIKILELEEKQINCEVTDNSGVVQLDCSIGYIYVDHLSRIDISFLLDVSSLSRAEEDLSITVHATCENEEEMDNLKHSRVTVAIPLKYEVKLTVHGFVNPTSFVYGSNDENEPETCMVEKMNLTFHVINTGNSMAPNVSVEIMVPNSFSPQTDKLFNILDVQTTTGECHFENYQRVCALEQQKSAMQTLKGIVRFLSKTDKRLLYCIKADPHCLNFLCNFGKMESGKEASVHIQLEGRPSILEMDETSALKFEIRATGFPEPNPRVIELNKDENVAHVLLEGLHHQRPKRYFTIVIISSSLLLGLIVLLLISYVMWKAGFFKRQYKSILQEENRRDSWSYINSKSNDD

- binding [1]: binds
- binding [2]: binds
Substance: paxillin (from UniProt P49023 1-591)
